# Test results reported in the supplement of paper PMC9744312.
# Where a name gives a salt, the structure may show the parent alone. Some of the results follow. Single values of this set are uncertain.
# Tested on: Peyronie's disease tunica albuginea primary fibroblasts
# Assay: inhibition of TGF-beta1-induced alpha-SMA expression (myofibroblast transformation), relative to TGF-beta1-only and untreated controls; higher = stronger inhibition of myofibroblast transformation
# Conditions: 10 µM; TGF-beta1 10 ng/mL; 72 h
row,Structure (SMILES),inhibition of TGF-beta1-induced alpha-SMA expression
1,O=C1CCc2ccc(OCCCCN3CCN(c4cccc(Cl)c4Cl)CC3)cc2N1 [Aripiprazole],49.3%
2,NCCCC(N)(C(=O)O)C(F)F (centres undefined) [Eflornithine hydrochloride hydrate],-0.902%
3,CNCc1cc(-c2ccccc2F)n(S(=O)(=O)c2cccnc2)c1 [Vonoprazan Fumarate (TAK-438)],29.3%
4,O=C1C(O)=C([C@H]2CC[C@H](c3ccc(Cl)cc3)CC2)C(=O)c2ccccc21 [Atovaquone],9.7%
5,Cc1ccccc1C(OCCN(C)C)c1ccccc1 (centres undefined) [Orphenadrine Hydrochloride],17.9%
6,Cc1ccccc1C(OCCN(C)C)c1ccccc1 (centres undefined) [Orphenadrine Citrate],12.3%
7,C=C(c1ccc(C(=O)O)cc1)c1cc2c(cc1C)C(C)(C)CCC2(C)C [Bexarotene],-7.07%
8,CC(C)(C)NCC(O)c1cc(O)cc(O)c1 (centres undefined) [Terbutaline Sulfate],14.9%
9,CCOC(=O)[N-]c1c[n+](N2CCOCC2)no1 [Molsidomine],-29.7%
10,CC[N+](CC)(CC)CCOc1cccc(OCC[N+](CC)(CC)CC)c1OCC[N+](CC)(CC)CC [Gallamine Triethiodide],35.6%
11,NCc1ccc(S(N)(=O)=O)cc1 [Mafenide hydrochloride],11.8%
12,NCc1ccc(S(N)(=O)=O)cc1 [Mafenide Acetate],-5.5%
13,CN[C@@H]1[C@H](O[C@H]2[C@H](O[C@H]3[C@H](O)[C@@H](O)[C@H](NC(=N)N)[C@@H](O)[C@@H]3NC(=N)N)O[C@@H](C)[C@]2(O)CO)O[C@@H](CO)[C@H](O)[C@H]1O [Dihydrostreptomycin sulfate],6.24%
14,CCN(CCCOc1ccc2c(Nc3cc(CC(=O)Nc4cccc(F)c4)[nH]n3)ncnc2c1)CCOP(=O)(O)O [Barasertib (AZD1152-HQPA)],-100%
15,CC/C(=C(\c1ccccc1)c1ccc(OCCN(C)C)cc1)c1ccccc1 [Tamoxifen Citrate],71.7%
16,CC/C(=C(\c1ccccc1)c1ccc(OCCN(C)C)cc1)c1ccccc1 [Tamoxifen],8.93%
17,CCc1oc2ccccc2c1C(=O)c1cc(Br)c(O)c(Br)c1 [Benzbromarone],-4.72%
18,COC(=O)[C@]12CCC(C)(C)C[C@H]1[C@H]1C(=O)C=C3[C@@]4(C)C=C(C#N)C(=O)C(C)(C)[C@@H]4CC[C@@]3(C)[C@]1(C)CC2 [Bardoxolone Methyl],> 100%
19,CCCCC[C@H](O)/C=C/[C@H]1[C@H](O)CC(=O)[C@@H]1CCCCCCC(=O)O [Alprostadil],26%
20,O=C(O)c1ccccc1 [Benzoic Acid],-19.6%
21,CC[C@@H]([C@H](C)O)n1ncn(-c2ccc(N3CCN(c4ccc(OC[C@@H]5CO[C@@](Cn6cncn6)(c6ccc(F)cc6F)C5)cc4)CC3)cc2)c1=O [Posaconazole],10.5%
22,CN1CCC[C@@H]1CCO[C@](C)(c1ccccc1)c1ccc(Cl)cc1 [Clemastine Fumarate],80.2%
23,CCOc1ccc(NC(C)=O)cc1 [Phenacetin],49.3%
24,CC(C)[C@H](N)C(=O)OCC(CO)OCn1cnc2c(=O)[nH]c(N)nc21 (some centres undefined) [Valganciclovir HCl],-1.22%
25,CC(C(=O)O)c1ccc(C(=O)c2cccs2)cc1 (centres undefined) [Suprofen],29.7%

# A second format for part of the listing above.
row	Structure (SMILES)	inhibition of TGF-beta1-induced alpha-SMA expression
7	C=C(c1ccc(C(=O)O)cc1)c1cc2c(cc1C)C(C)(C)CCC2(C)C [Bexarotene]	-7.07%
8	CC(C)(C)NCC(O)c1cc(O)cc(O)c1 (centres undefined) [Terbutaline Sulfate]	14.9%
9	CCOC(=O)[N-]c1c[n+](N2CCOCC2)no1 [Molsidomine]	-29.7%
10	CC[N+](CC)(CC)CCOc1cccc(OCC[N+](CC)(CC)CC)c1OCC[N+](CC)(CC)CC [Gallamine Triethiodide]	35.6%

# Continuation:

row,Structure (SMILES),inhibition of TGF-beta1-induced alpha-SMA expression
1,CN1CCN(c2nc(C3=C(c4c[nH]c5ccccc45)C(=O)NC3=O)c3ccccc3n2)CC1 [Sotrastaurin],23.9%
2,NCCCCC(NC(=O)C1CCCN1C(=O)C1CSSCC(N)C(=O)NC(Cc2ccc(O)cc2)C(=O)NC(Cc2ccccc2)C(=O)NC(CCC(N)=O)C(=O)NC(CC(N)=O)C(=O)N1)C(=O)NCC(N)=O (centres undefined) [Lypressin Acetate],> 100%
3,COc1cc2ncnc(Nc3ccc(F)c(Cl)c3)c2cc1OCCCN1CCOCC1 [Gefitinib hydrochloride],68.8%
4,COc1cc2ncnc(Nc3ccc(F)c(Cl)c3)c2cc1OCCCN1CCOCC1 [Gefitinib (ZD1839)],-29.3%
5,"COc1ccc(C(=O)c2ccccc2O)c(O)c1 [2,2′-Dihydroxy-4-methoxybenzophenone]",-19.6%
6,Nc1nc2[nH]cc(CCc3ccc(C(=O)N[C@@H](CCC(=O)O)C(=O)O)cc3)c2c(=O)[nH]1 [Pemetrexed Disodium Hydrate],22.5%
7,Nc1nc2[nH]cc(CCc3ccc(C(=O)N[C@@H](CCC(=O)O)C(=O)O)cc3)c2c(=O)[nH]1 [Pemetrexed],6.45%
8,COCCc1ccc(OCC(O)CNC(C)C)cc1 (centres undefined) [Metoprolol succinate],31.7%
9,COCCc1ccc(OCC(O)CNC(C)C)cc1 (centres undefined) [Metoprolol],-18.3%
10,COCCc1ccc(OCC(O)CNC(C)C)cc1 (centres undefined) [Metoprolol Tartrate],-10.7%
11,CCN1CCN(Cc2ccc(Nc3ncc(F)c(-c4cc(F)c5nc(C)n(C(C)C)c5c4)n3)nc2)CC1,56.4%
12,CCN1CCN(Cc2ccc(Nc3ncc(F)c(-c4cc(F)c5nc(C)n(C(C)C)c5c4)n3)nc2)CC1 [Abemaciclib],47.5%
13,Nc1ccc(S(=O)(=O)Nc2cncc(Cl)n2)cc1 [Sulfalozine sodium],> 100%
14,Cc1cc(N2CCN([C@@H]3CN[C@H](C(=O)N4CCSC4)C3)CC2)n(-c2ccccc2)n1 [Teneligliptin hydrobromide],19.4%
15,CC(C)Cc1ccc(C(C)C(=O)O)cc1 (centres undefined) [Ibuprofen Lysine],46.3%
16,CC(C)Cc1ccc(C(C)C(=O)O)cc1 (centres undefined) [Ibuprofen],29%
17,COc1ccc(CN2CCN(C(c3ccc(F)cc3)c3ccc(F)cc3)CC2)c(OC)c1OC [Lomerizine 2HCl],-6.21%
18,Cc1cc(S(=O)(=O)O)c2c(C)ccc(C(C)C)cc1-2 [Sodium gualenate],-13%
19,Cc1cnc(C(=O)O)c[n+]1[O-] [Acipimox],22.5%
20,O=C(O)C1(C(=O)O)CCC1.[NH2-].[NH2-].[Pt+2] [Carboplatin],-11.1%
21,CC1=C(C/C=C(\C)CCC[C@H](C)CCC[C@H](C)CCCC(C)C)C(=O)c2ccccc2C1=O [Vitamin K1],96%
22,CCCCN1CCCC[C@H]1C(=O)Nc1c(C)cccc1C [Levobupivacaine HCl],10%
23,Nc1ccc(C(=O)O)c(O)c1 [Sodium 4-Aminosalicylate],4.1%
24,O=C1Nc2ccc(Cl)cc2[C@@](C#CC2CC2)(C(F)(F)F)O1 [Efavirenz],5.24%
25,O=C(O)c1ccccc1Nc1cccc(C(F)(F)F)c1 [Flufenamic acid],51%

row,Structure (SMILES),inhibition of TGF-beta1-induced alpha-SMA expression
1,Clc1ccc(C(c2ccccc2Cl)C(Cl)Cl)cc1 (centres undefined) [Mitotane],8.88%
2,O=C1O[C@H]([C@@H](O)CO)C(O)=C1O [Vitamin C],25.1%
3,Cc1cccc(C)c1OCC(=O)N[C@@H](Cc1ccccc1)[C@@H](O)C[C@H](Cc1ccccc1)NC(=O)[C@H](C(C)C)N1CCCNC1=O [Lopinavir],-8.96%
4,Nc1ccc(/N=N/c2ccccc2)c(N)n1 [Phenazopyridine HCl],-21.4%
5,CCC(=O)O[C@]1(C(=O)SCF)[C@H](C)C[C@H]2[C@@H]3C[C@H](F)C4=CC(=O)C=C[C@]4(C)[C@@]3(F)[C@@H](O)C[C@@]21C [Fluticasone propionate],70.2%
6,CN1CCC(=C2c3ccccc3CCn3c(C=O)cnc32)CC1 [Alcaftadine],28.5%
7,Nc1nc(/C(=C/CC(=O)O)C(=O)N[C@@H]2C(=O)N3C(C(=O)O)=CCS[C@H]23)cs1 [Ceftibuten dihydrate],0.591%
8,CC(C)[C@H](O)C(=O)N[C@@H](C)C(=O)N[C@@H]1C(=O)N(C)CCc2ccccc21,-327%
9,Cc1cn(-c2cc(NC(=O)c3ccc(C)c(Nc4nccc(-c5cnccn5)n4)c3)cc(C(F)(F)F)c2)cn1 [Radotinib],21.6%
10,CCc1nn(CCCN2CCN(c3cccc(Cl)c3)CC2)c(=O)n1CCOc1ccccc1 [Nefazodone hydrochloride],14.6%
11,"O=C(c1ccc(F)c(F)c1Nc1ccc(I)cc1F)N1CC(O)([C@@H]2CCCCN2)C1 [Cobimetinib (GDC-0973, RG7420)]",-45.9%
12,O=S(=O)(c1cccc2cnccc12)N1CCCNCC1 [Fasudil (HA-1077) HCl],-28.3%
13,CC(NCCc1ccc(O)cc1)C(O)c1ccc(O)cc1 (centres undefined) [Ritodrine HCl],12.3%
14,C[N+](C)(CCOc1ccccc1)Cc1ccccc1.O=C([O-])c1cc2ccccc2cc1O [Bephenium Hydroxynaphthoate],-0.471%
15,"C[C@H](Nc1ncnc2nc[nH]c12)c1cc2cccc(Cl)c2c(=O)n1-c1ccccc1 [Duvelisib (IPI-145, INK1197)]",7.73%
16,CCC1(C)CC(=O)NC1=O (centres undefined) [Ethosuximide],-3.75%
17,O=[N+]([O-])c1ccc(O)c2ncccc12 [Nitroxoline],62.1%
18,N#CC[C@H](C1CCCC1)n1cc(-c2ncnc3[nH]ccc23)cn1,-8.86%
19,N#CC[C@H](C1CCCC1)n1cc(-c2ncnc3[nH]ccc23)cn1 [Ruxolitinib Phosphate],-3.46%
20,CCCc1nn(C)c2c(=O)[nH]c(-c3cc(S(=O)(=O)N4CCN(C)CC4)ccc3OCC)nc12 [Sildenafil Mesylate],22.4%
21,CCCc1nn(C)c2c(=O)[nH]c(-c3cc(S(=O)(=O)N4CCN(C)CC4)ccc3OCC)nc12 [Sildenafil Citrate],21.9%
22,CCCc1nn(C)c2c(=O)[nH]c(-c3cc(S(=O)(=O)N4CCN(C)CC4)ccc3OCC)nc12 [Sildenafil],93.1%
23,NNC(=O)c1ccncc1.Nc1ccc(C(=O)O)c(O)c1 [Pasiniazid],0.473%
24,CCC(C)(C)C(=O)O[C@H]1C[C@@H](C)C=C2C=C[C@H](C)[C@H](CC[C@@H]3C[C@@H](O)CC(=O)O3)[C@H]21 [Simvastatin],11.6%
